The values that follow come from patent US20030120038A1.

Protein sequences, listed by entry. Tags and fused reporters are not part of them. Lines headed by an entry give the natural chain unless they say otherwise; changes in a name come on top.
UniProt P17948: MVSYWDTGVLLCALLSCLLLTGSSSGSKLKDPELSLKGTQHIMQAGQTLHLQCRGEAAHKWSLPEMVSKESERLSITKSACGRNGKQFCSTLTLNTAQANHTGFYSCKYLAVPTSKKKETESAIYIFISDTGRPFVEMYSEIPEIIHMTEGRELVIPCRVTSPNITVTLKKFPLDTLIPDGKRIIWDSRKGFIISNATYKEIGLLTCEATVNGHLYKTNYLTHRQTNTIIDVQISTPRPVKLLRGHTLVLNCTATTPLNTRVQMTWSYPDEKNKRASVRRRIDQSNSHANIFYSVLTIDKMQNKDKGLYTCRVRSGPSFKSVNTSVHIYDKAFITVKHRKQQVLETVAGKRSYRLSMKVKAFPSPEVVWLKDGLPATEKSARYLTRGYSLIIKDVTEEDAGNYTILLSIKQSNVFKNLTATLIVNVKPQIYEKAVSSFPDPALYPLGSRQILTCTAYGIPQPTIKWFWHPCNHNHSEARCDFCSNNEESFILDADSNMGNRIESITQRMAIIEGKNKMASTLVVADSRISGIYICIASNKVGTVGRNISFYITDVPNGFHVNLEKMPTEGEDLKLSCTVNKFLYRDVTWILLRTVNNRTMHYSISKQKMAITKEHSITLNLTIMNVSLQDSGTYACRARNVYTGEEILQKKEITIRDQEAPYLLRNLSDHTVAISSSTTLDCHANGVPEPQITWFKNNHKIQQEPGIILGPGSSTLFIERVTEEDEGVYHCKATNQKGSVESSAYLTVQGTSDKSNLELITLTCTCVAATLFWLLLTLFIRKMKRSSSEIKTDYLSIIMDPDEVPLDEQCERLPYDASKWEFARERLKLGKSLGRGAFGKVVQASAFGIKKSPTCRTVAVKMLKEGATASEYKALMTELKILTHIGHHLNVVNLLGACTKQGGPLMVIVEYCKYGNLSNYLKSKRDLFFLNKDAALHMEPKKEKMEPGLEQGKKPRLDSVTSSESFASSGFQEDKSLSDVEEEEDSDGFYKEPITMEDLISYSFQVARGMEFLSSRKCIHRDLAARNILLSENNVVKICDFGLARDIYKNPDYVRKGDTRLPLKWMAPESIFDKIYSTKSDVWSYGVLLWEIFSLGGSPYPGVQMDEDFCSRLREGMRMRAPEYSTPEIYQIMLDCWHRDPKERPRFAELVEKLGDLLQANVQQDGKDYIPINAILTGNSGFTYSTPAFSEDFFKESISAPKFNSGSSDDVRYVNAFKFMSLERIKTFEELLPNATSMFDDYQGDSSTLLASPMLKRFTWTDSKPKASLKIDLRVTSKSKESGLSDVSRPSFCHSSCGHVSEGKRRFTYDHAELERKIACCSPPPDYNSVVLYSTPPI

These are yes or no findings as the source states them, for the method shown. Some binding calls cover weakened binding; strength is not graded here.

This assay deals with sVEGF-RI, natural soluble form of the FLT VEGF receptor, expressed by baculovirus in Sf9 insect cells (human) (UniProt P17948). The assay is described as follows: summary of crosslinking and plate binding.

B1: recombinant human PlGF (ligand, UniProt P49763-2 19-149, looked up)
chain: LPAVPPQQWALSAGNGSSEVEVVPFQEVWGRSYCRALERLVDVVSEYPSEVEHMFSPSCVSLLRCTGCCGDENLHCVPVETANVTMQLLKIRSGDRPSYVELTFSQHVRCECRPLREKMKPERCGDAVPRR
modifications: 125I label (chloramine T method) in the tracer form
On to B1, for which the binding result was “binds”.
